These are yes or no findings as the source states them, for the method shown. Binding seen in cells or lysates may run through a third protein. Some entries that bind do so weakly or less than the wild type.
Experiments:
[1] = target: YN-MYB52 (Arabidopsis thaliana) (UniProt Q6R0C4); test: split reporter
[2] = target: Flag tagged ERF4 (Arabidopsis thaliana) (UniProt O80340); test: co-IP

Protein sequences, listed by entry. Tags and fused reporters are not part of them.
UniProt Q6R0C4: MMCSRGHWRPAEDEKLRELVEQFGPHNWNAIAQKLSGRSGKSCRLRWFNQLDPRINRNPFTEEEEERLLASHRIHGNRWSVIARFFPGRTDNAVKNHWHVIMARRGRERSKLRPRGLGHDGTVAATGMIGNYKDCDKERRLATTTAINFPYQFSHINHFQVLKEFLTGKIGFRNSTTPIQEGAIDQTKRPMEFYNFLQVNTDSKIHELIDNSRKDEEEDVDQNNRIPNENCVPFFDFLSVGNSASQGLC
UniProt O80340: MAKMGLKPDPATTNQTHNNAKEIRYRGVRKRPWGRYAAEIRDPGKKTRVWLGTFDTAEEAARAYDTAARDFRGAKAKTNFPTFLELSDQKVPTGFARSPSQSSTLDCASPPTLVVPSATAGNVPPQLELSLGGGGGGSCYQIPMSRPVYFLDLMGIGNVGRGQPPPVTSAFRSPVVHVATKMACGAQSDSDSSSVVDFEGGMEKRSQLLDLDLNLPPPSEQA

Substance	binding [1]	binding [2]
ERF4-YC (from UniProt O80340 1-222)	binds	
Myc tagged MYB52 (from UniProt Q6R0C4 1-249)		binds

Source: doi:10.1101/2020.01.21.914390
